For two substances, binding results are on record in publication PMC2193228.

These are yes or no findings as the source states them, for the method shown. Binding calls can cover weak binding; strength is not graded here. Where a sequence is shown, tags or fusion partners need not be part of it.

The target of this experiment is GST-Sim3 (S. pombe) (UniProt Q9USQ4). Briefly: pull-down; GST-Sim3 with recombinant histone octamers, H3-H4 tetramers or soluble histones; Figure S7; methods in the Supplemental Data; both purified.

As for “recombinant H3-H4-H2A-H2B octamers (complex)”, the binding entry is reported as “binds”.

On to H3-H4 tetramers (complex), for which the binding entry is listed as “binds”.
